Data published in PMC12344774, “Ferrocenyl Quinoline-Benzimidazole Hybrids: A Multistage Strategy to Combat Drug-Resistant Malaria” (Inorganic Chemistry, 2025).

System: PfK1
Format: cell-based, Plasmodium falciparum
Conditions: resistance index

**Q.** How did the “RI (IC50 K1/IC50 NF54)” value turn out when Cc1ccc2c(c1)nc(-[c-]1cccc1CN(C)C)n2CCNCCNc1ccnc2cc(Cl)ccc12.[Fe+2].c1cc[cH-]c1 (stereo not drawn) [Complex C4, N1-(7-Chloroquinolin-4-yl)-N2-(2-(5-methyl-2-(2-N,N-dimethylaminomethyl)ferrocenyl-1H-benzo[d]imidazole-1-yl)ethyl)ethane-1,2-diamine] was run?
**A.** 4.5

**Q.** With CCN(CC)CCCC(C)Nc1ccnc2cc(Cl)ccc12 (stereo not drawn) [CQ, chloroquine, reference compound] as the molecule, how does the “RI (IC50 K1/IC50 NF54)” value read?
**A.** 11.3

**Q.** How did the “RI (IC50 K1/IC50 NF54)” value turn out when CN(C)Cc1ccc[c-]1CNc1ccnc2cc(Cl)ccc12.[Fe+2].c1cc[cH-]c1 (stereo not drawn) [FQ, ferroquine, reference compound] was run?
**A.** 1.20
